SMILES strings stand for the structures. Some of the results follow. Cut-off read from the data, not from the text of the source: active = 2-fold of DMSO or more and inactive = the rest. Single values of this set are uncertain. Some low values are a fixed figure set by the source, not a measured ratio.

This assay concerns CM7/1-hgem mouse ES cell-derived cardiomyocytes. Put plainly: maximal number of mAG-hGem(1/110)-positive cardiomyocytes over 96 h, fold-change vs DMSO; higher = more cardiomyocyte cell cycle activity. To be noted: 1 µM; 96 (max over 12 h time points) h.
Consider `CC(=O)SCC(Cc1ccccc1)C(=O)NCC(=O)OCc1ccccc1` (stereo not drawn), for which the maximal number is inactive: 1.
In the case of `C=C1CCC2C(CC2(C)C)C(=O)CCC1O` (stereo not drawn), the maximal number is inactive: 1.
Regarding `CC1(O)CCC(C(C)(C)O)CC1` (stereo not drawn), the maximal number is inactive: 1.
For the compound `CC(C)c1ccc2oc3nc(N)c(C(=O)O)cc3c(=O)c2c1`, the maximal number was inactive: 1.
Turning to `CCCCc1oc2ccccc2c1C(=O)c1cc(I)c(OCCN(CC)CC)c(I)c1`, the maximal number was inactive: 1.
The value for `O=c1oc2c(O)c(O)cc3c(=O)oc4c(O)c(O)cc1c4c23` was inactive: 1.
In the case of `CC1(C)CC2C1CC[C@]1(CBr)CCC3C(CC(=O)O)C(=O)O[C@@]32C1` (stereo partly drawn) [BROMO-3-HYDROXY-4-(SUCCIN-2-YL)-CARYOLANE gamma-LACTONE], the maximal number is inactive: 1.
Consider `Cc1cc(OC(=O)c2c(C)cc(O)cc2O)cc(O)c1C(=O)O`, for which the maximal number was inactive: 1.
Take `NCc1ccccc1CC(=O)N[C@@H]1C(=O)N2C(C(=O)O)=C(CSc3nnnn3CC(=O)O)CS[C@H]12`: the maximal number is inactive: 1.
As for `COC(=O)C1=C(C)NC(C)=C(C(=O)OCCN2CCN(C(c3ccccc3)c3ccccc3)CC2)C1c1cccc([N+](=O)[O-])c1` (stereo not drawn), the maximal number was inactive: 0.
For `CCOc1ccc(Cc2nccc3cc(OCC)c(OCC)cc23)cc1OCC`, the maximal number is inactive: 1.
With `CC(=O)N(CC(O)CO)c1c(I)c(C(=O)NCC(O)CO)c(I)c(C(=O)NCC(O)CO)c1I` (stereo not drawn), the maximal number was inactive: 1.
The value for `CC(=O)OCC(=O)[C@@]12OC3(CCCC3)O[C@@H]1C[C@H]1[C@@H]3CCC4=CC(=O)C=C[C@]4(C)[C@@]3(F)[C@@H](O)C[C@@]12C` was inactive: 1; that for `CCOC(=O)C(C)(C)Oc1ccc(Cl)cc1` was inactive: 1.
`O=c1cc(-c2cc(O)c(O)c(O)c2)oc2cc(O)cc(O)c12`: the maximal number is inactive: 1.
Take `CC(C)CCC[C@@H](C)[C@H]1CC[C@H]2[C@@H]3CC[C@@H]4C[C@H](O)CC[C@]4(C)[C@H]3CC[C@]12C`: the maximal number is inactive: 1.
Consider `CNNCc1ccc(C(=O)NC(C)C)cc1`, for which the maximal number was inactive: 1.
In the case of `Fc1ccc([C@@H]2CCNC[C@H]2COc2ccc3c(c2)OCO3)cc1` it was inactive: 0; in that of `COc1c2occc2c(OC)c2c(=O)cc(C)oc12`, inactive: 1; in that of `CCOc1cccc(C(=O)c2ccc(O)c(O)c2O)c1`, inactive: 1.
On to `CO/N=C(\C(=O)N[C@@H]1C(=O)N2C(C(=O)OCOC(=O)C(C)(C)C)=C(/C=C\c3scnc3C)CS[C@H]12)c1csc(N)n1`, for which the maximal number was inactive: 1.
Take `Cc1c(O)c(=O)ccn1C`: the maximal number was inactive: 1.
The value for `O=C1CC[C@@H](C(=O)O)N1` was inactive: 1; that for `CCN(CC)CCNC(=O)c1ccc(NC(C)=O)cc1` was inactive: 1.
For the compound `CO[C@H]1C[C@H](O[C@@H]2/C(C)=C/C[C@@H]3C[C@@H](C[C@]4(CC[C@H](C)[C@@H](C5CCCCC5)O4)O3)OC(=O)[C@@H]3C=C(C)/C(=N/O)[C@H]4OC/C(=C\C=C\[C@@H]2C)[C@]43O)O[C@@H](C)[C@@H]1O`, the maximal number was inactive: 1.
In the case of `C#C[C@]1(O)CC[C@H]2[C@@H]3CCc4cc(OC5CCCC5)ccc4[C@H]3CC[C@@]21C` it was inactive: 1; in that of `O=S(=O)([O-])NC1CCCCC1.[Na+]`, inactive: 1; in that of `C#C[C@]1(O)CC[C@H]2[C@@H]3CCC4=CC(=O)CC[C@@H]4[C@H]3CC[C@@]21CC`, inactive: 1.
In the case of `CC(=O)O[C@H]1CC[C@]2(C)[C@H]3CC=C4[C@@H]5CC(C)(C)CC[C@]5(C(=O)O)CC[C@@]4(C)[C@]3(C)CC[C@H]2C1(C)C` it was inactive: 0; in that of `CO[C@H]1C[C@@H]2CC[C@@H](C)[C@@](O)(O2)C(=O)C(=O)N2CCCC[C@H]2C(=O)O[C@H]([C@H](C)C[C@@H]2CC[C@@H](O)[C@H](OC)C2)CC(=O)[C@H](C)/C=C(\C)[C@@H](O)[C@@H](OC)C(=O)[C@H](C)C[C@H](C)/C=C/C=C/C=C/1C`, inactive: 0.
In the case of `CC[n+]1c(-c2ccccc2)c2cc(N)ccc2c2ccc(N)cc21` it was inactive: 1.
Regarding `O=C(O)C[C@H](O)C[C@H](O)/C=C/c1c(C2CC2)nc2ccccc2c1-c1ccc(F)cc1`, the maximal number was inactive: 1.
For `COc1ccc(-c2coc3c(O)c(OC)ccc3c2=O)cc1`, the maximal number was inactive: 1.
In the case of `C[C@@H]1O[C@@H](Oc2c(-c3ccc(O)c(O)c3)oc3cc(O)cc(O)c3c2=O)[C@H](O)[C@H](O)[C@H]1O`, the maximal number was active: 3.
For the compound `OCC(O)CN1CCN(c2ccccc2)CC1` (stereo not drawn), the maximal number is inactive: 1.
Turning to `C[C@H]1C(=O)CC[C@@H]2[C@]1(C)CC[C@H]1[C@@]2(C)CC[C@@]2(C)[C@@H]3CC(C)(C)CC[C@]3(C)CC[C@]12C`, the maximal number was inactive: 0.
In the case of `CN1CCN(c2c(F)cc3c(=O)c(C(=O)O)cn4c3c2SCC4)CC1` it was inactive: 0; in that of `O=C(OCC(O)CO)c1ccccc1Nc1ccnc2cc(Cl)ccc12` (stereo not drawn), inactive: 0.5.

For the origin of these results see the supplement of paper PMC9549374.
